Values quoted from earlier work as cited in US7799913B2, “Carbonylbenzoxazine compounds for enhancing glutamatergic synaptic responses” (Cortex Pharmaceuticals, Inc., priority 2001, dated 2010).
At least one compound was matched to its structure with a doubt left.

Tested on: brain AMPA receptors
Settings: works only at high concentrations; cited from earlier work

In the case of `COc1ccc(C(=O)N2CCCC2=O)cc1` [aniracetam, N-anisoyl-2-pyrrolidinone], the “concentration at which the drug works” value is listed as “approx. 1000 μM”.
